The target of one series is BTK wild-type kinase (Homo sapiens (Human), UniProt Q06187). In words: BTK kinase activity inhibition test in vitro (Caliper EZ Reader). The settings on record: read-out: BTK IC50. Type of series: biochemical.
The nature of series [1]: Blood-brain barrier permeability test, SD rats (plasma, cerebrospinal fluid, brain tissue). The settings on record: oral single dose 10 mg/kg.
Series [2] is described as follows: Pharmacokinetic test, oral, SD rats. The settings on record: oral 10 mg/kg, plasma.

The chains behind the UniProt entries cited, without tags or fusion partners.
UniProt Q06187, whole entry: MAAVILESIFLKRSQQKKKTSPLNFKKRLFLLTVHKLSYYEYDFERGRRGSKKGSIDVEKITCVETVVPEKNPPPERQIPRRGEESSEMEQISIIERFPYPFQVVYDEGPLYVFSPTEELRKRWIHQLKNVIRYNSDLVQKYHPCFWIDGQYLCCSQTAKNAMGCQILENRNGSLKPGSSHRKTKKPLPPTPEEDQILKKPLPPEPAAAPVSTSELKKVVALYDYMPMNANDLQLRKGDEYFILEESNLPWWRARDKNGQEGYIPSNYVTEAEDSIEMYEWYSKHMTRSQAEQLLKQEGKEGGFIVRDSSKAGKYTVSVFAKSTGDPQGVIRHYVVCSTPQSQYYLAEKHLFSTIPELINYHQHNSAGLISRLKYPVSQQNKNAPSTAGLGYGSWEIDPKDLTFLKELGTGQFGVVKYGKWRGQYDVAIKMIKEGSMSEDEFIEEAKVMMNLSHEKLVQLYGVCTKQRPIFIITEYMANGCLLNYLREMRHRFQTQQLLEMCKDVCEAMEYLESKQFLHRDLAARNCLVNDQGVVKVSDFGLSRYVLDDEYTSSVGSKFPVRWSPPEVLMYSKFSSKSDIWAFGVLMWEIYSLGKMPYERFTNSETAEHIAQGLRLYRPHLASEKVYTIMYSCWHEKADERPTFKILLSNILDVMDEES

In general, pIC50 refers to the IC50 on a negative log10 scale, so that one unit is a factor of ten.

pIC50: −log10 of the molar value. The structures given here were assigned with low confidence; some may be wrong.

With `Nc1nccn2c(C34CCC(CO)(CC3)OC4)nc(-c3ccc(C(F)(F)c4ccccc4F)cc3)c12`, the pIC50 at BTK wild-type kinase is 7.00 to 7.70. In series [1] (1 h), the Brain tissue/plasma is 39%, the Cerebrospinal fluid/plasma worked out at 3.6%, the “Drug concentration in brain tissue” value amounted to 643 ng/g and the “Drug concentration in cerebrospinal fluid” value was found to be 59.7 ng/mL. The same compound registered a Plasma drug concentration in series [1] (1 h) of 1652 ng/mL. Further, in series [1] (4 h), the Brain tissue/plasma is listed as 53%, the Cerebrospinal fluid/plasma is listed as 4.4%, the “Drug concentration in brain tissue” value is 910 ng/g and the “Drug concentration in cerebrospinal fluid” value is 74.3 ng/mL. In addition, in series [1] (4 h), the Plasma drug concentration came out at 1706 ng/mL. In addition, the “Cl” value in series [2] was 21.03 mL/min/kg.

For the origin of these results see patent US20230364079A1, “COMPOUND AS BRAIN-PERMEABLE BTK OR HER2 INHIBITOR, PREPARATION METHOD THEREFOR, AND USE THEREOF” (CHENGDU HYPERWAY PHARMACEUTICALS CO., LTD., priority 2020, published 2023).
